{"source": "PubChem BioAssay AID1259254 (NCATS, 2017)", "test": "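Finding genes that stop cells copying their DNA twice in one cycle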 (primary screen)", "cells": "human HCT116 colorectal cancer cells", "reagents": "single siRNA against human genes", "timing": "3 days", "detection": "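Nuclei stained with Hoechst and imaged; cell-cycle phase assigned by DNA content; G2 share scaled per plate, non-targeting siRNA 0%, GMNN siRNA 100%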", "direction": "G2 robust z-score: higher = more G2 cells, more excess DNA replication", "active means": "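An siRNA counts as active if its G2 robust z-score lies at least 5 MADs above the screen median; here such calls match roughly 38% of GMNN control or more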", "note": "In all, the deposit lists about 59,000 reagents; this is an unselected part. Of all reagents, about 1,550 (2.6%) were called active. 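G2 share is only a proxy for re-replication; each gene was hit by three separate siRNAs, and active genes were retested.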 Unmarked entries are inactive. Reagents against one gene are numbered here. Not all columns of the deposit are shown. Not stated in the record: the amount of reagent."}
{"target gene": "CISH (GeneID 1154)", "reagent": 1, "G2 robust z-score": 0.001}
{"target gene": "CISH (GeneID 1154)", "reagent": 2, "G2 robust z-score": 0.794}
{"target gene": "CISH (GeneID 1154)", "reagent": 3, "G2 robust z-score": -0.193}
{"target gene": "LINC01913 (GeneID 388942)", "reagent": 1, "G2 robust z-score": -0.114}
{"target gene": "LINC01913 (GeneID 388942)", "reagent": 2, "G2 robust z-score": 0.127}
{"target gene": "LINC01913 (GeneID 388942)", "reagent": 3, "G2 robust z-score": -0.671}
{"target gene": "CMA1 (GeneID 1215)", "reagent": 1, "G2 robust z-score": 0.38}
{"target gene": "CMA1 (GeneID 1215)", "reagent": 2, "G2 robust z-score": 1.37}
{"target gene": "CMA1 (GeneID 1215)", "reagent": 3, "G2 robust z-score": -0.319}
{"target gene": "GIP (GeneID 2695)", "reagent": 1, "G2 robust z-score": -0.0377}
{"target gene": "GIP (GeneID 2695)", "reagent": 2, "G2 robust z-score": 2.29}
{"target gene": "GIP (GeneID 2695)", "reagent": 3, "G2 robust z-score": -1.16}
{"target gene": "SH3TC2-DT (GeneID 255187)", "reagent": 1, "G2 robust z-score": -0.516}
{"target gene": "SH3TC2-DT (GeneID 255187)", "reagent": 2, "G2 robust z-score": 1.79}
{"target gene": "SH3TC2-DT (GeneID 255187)", "reagent": 3, "G2 robust z-score": 0.178}
{"target gene": "SH3TC2-DT (GeneID 255187)", "reagent": 4, "G2 robust z-score": -0.388}
{"target gene": "SH3TC2-DT (GeneID 255187)", "reagent": 5, "G2 robust z-score": 0.393}
{"target gene": "SH3TC2-DT (GeneID 255187)", "reagent": 6, "G2 robust z-score": 0.827}

Already shown: an excerpt of the list.
{"target gene": "GIP (GeneID 2695)", "reagent": 1, "G2 robust z-score": -0.0377}
{"target gene": "GIP (GeneID 2695)", "reagent": 2, "G2 robust z-score": 2.29}
{"target gene": "GIP (GeneID 2695)", "reagent": 3, "G2 robust z-score": -1.16}

Continued.
{"target gene": "COPE (GeneID 11316)", "reagent": 1, "G2 robust z-score": 0.106}
{"target gene": "COPE (GeneID 11316)", "reagent": 2, "G2 robust z-score": 0.395}
{"target gene": "COPE (GeneID 11316)", "reagent": 3, "G2 robust z-score": -0.71}
{"target gene": "NR1D2 (GeneID 9975)", "reagent": 1, "G2 robust z-score": -0.0768}
{"target gene": "NR1D2 (GeneID 9975)", "reagent": 2, "G2 robust z-score": -0.394}
{"target gene": "NR1D2 (GeneID 9975)", "reagent": 3, "G2 robust z-score": 0.0988}
{"target gene": "CCRL2 (GeneID 9034)", "reagent": 1, "G2 robust z-score": 4.53}
{"target gene": "CCRL2 (GeneID 9034)", "reagent": 2, "G2 robust z-score": 0.378}
{"target gene": "CCRL2 (GeneID 9034)", "reagent": 3, "G2 robust z-score": -0.134}
{"target gene": "CCRL2 (GeneID 9034)", "reagent": 4, "G2 robust z-score": 2.13}
{"target gene": "CCRL2 (GeneID 9034)", "reagent": 5, "G2 robust z-score": -0.908}
{"target gene": "CCRL2 (GeneID 9034)", "reagent": 6, "G2 robust z-score": -0.809}
